Literature values as cited in patent US11707557B2, “Compositions and devices incorporating water-insoluble therapeutic agents and methods of the use thereof” (COOK MEDICAL TECHNOLOGIES LLC, priority 2014, dated 2023).
Some of these results come from one statement about several compounds together. For at least one compound, name, drawing or mass did not settle the structure.

Conditions: each known to have; cited from earlier work

Structure (SMILES)	water solubility
CO[C@@H]1C[C@H](C[C@@H](C)[C@@H]2CC(=O)[C@H](C)/C=C(\C)[C@@H](O)[C@@H](OC)C(=O)[C@H](C)C[C@H](C)/C=C/C=C/C=C(\C)[C@@H](O)C[C@@H]3CC[C@@H](C)[C@@](O)(O3)C(=O)C(=O)N3CCCC[C@H]3C(=O)O2)CC[C@H]1O [novolimus]	less than 10 micrograms/ml
CO[C@H]1C[C@@H]2CC[C@@H](C)C(O)(O2)C(=O)C(=O)N2CCCC[C@H]2C(=O)O[C@H]([C@H](C)C[C@@H]2CC[C@@H](O)[C@H](OC)C2)CC[C@H](C)/C=C(\C)[C@@H](O)[C@@H](OC)C(=O)[C@H](C)C[C@H](C)/C=C/C=C/C=C/1C [myolimus]	less than 10 micrograms/ml
